Source: PubChem BioAssay AID248 (DTP/NCI, 2004)
The list shows only some results of the screen, not a fair sample: it gathers tests that were run many times, whatever their T/C, doses with no T/C, and many T/C values between a quarter and a half above the control. Further doses and runs are listed elsewhere. T/C gives the treated animals as a percentage of the vehicle group. Some doses have a count of surviving animals in place of a T/C: the source files T/C as zero there, which appears to mark a toxic dose or a test without result, not a measured value. Some doses without a T/C left all or most animals alive at the check, yet need not have been tolerated: survival well below the control is almost never listed, so the zero probably covers shortened survival too. Counts of survivors are from the toxicity check (mostly the fifth day) where no day follows; animals may have died later. Schedules are NCI's codes, taken here to give the interval after Q, in days (D) or hours (H), and the number of doses after X. Some schedules carry Z or #; the key to these is not given. Some entries were tested several times; the results are listed from low to high. For survival time, this PubChem deposit counts one and a half times the control or more as active, and values a quarter to a half above the control carry no call in these data; other NCI protocols may use other cut-offs.

Tested on: L1210 leukemia ip in BDF1 mice, survival T/C
Assay: NCI In Vivo Anticancer Drug Screen. Data for tumor model L1210 Leukemia (intraperitoneal) in B6D2F1 (BDF1) mice
Details: T/C endpoint: mean survival time, higher T/C = longer survival
[1] = dose: 100.0 mg/kg/injection, schedule: Q01DX009 (ip), vehicle: saline
[2] = dose: 400.0 mg/kg/injection, schedule: Q01DX009 (ip), vehicle: saline
[3] = dose: 400.0 mg/kg/injection, schedule: Q01DX001 (ip), vehicle: saline
[4] = dose: 100.0 mg/kg/injection, schedule: Q01DX009 (ip), vehicle: saline with Tween-80
[5] = dose: 200.0 mg/kg/injection, schedule: Q01DX009 (ip), vehicle: saline with Tween-80
[6] = dose: 400.0 mg/kg/injection, schedule: Q04DX003 (ip), vehicle: saline with Tween-80
[7] = dose: 150.0 mg/kg/injection, schedule: Q01DX001 (ip), vehicle: saline
[8] = dose: 300.0 mg/kg/injection, schedule: Q01DX001 (ip), vehicle: saline
[9] = dose: 80.0 mg/kg/injection, schedule: Q01DX001 (ip), vehicle: saline
[10] = dose: 100.0 mg/kg/injection, schedule: Q01DX001 (ip), vehicle: saline
[11] = dose: 200.0 mg/kg/injection, schedule: Q01DX001 (ip), vehicle: saline

CC(=O)Oc1ccc(Nc2c3ccccc3nc3ccccc23)cc1
T/C (dose: 50.0 mg/kg/injection, schedule: Q04DX002 (ip), vehicle: saline with Tween-80): 145 % of control | survivor count (dose: 200.0 mg/kg/injection, schedule: Q04DX002 (ip), vehicle: saline with Tween-80): 3 of 3 | survivor count (dose: 225.0 mg/kg/injection, schedule: Q04DX003 (ip), vehicle: saline with Tween-80): 1 of 10

O=C(O)c1cc(-c2ccccc2)cc(Br)c1O
survivor count (dose: 400.0 mg/kg/injection, schedule: Q01DX001 (ip), vehicle: carboxymethylcellulose (CMC)): 2 of 4

CC(C)CC(C=NCC(CCN1CCCC1)(CC(C)C)c1cccc2ccccc12)(CCN1CCCC1)c1cccc2ccccc12 (stereo not drawn)
survivor count [1]: 0 of 6 | survivor count (dose: 200.0 mg/kg/injection, schedule: Q01DX009 (ip), vehicle: saline): 0 of 6 | survivor count [2]: 0 of 6

N=C(N)Sc1cccc[n+]1[O-]
survivor count [3]: 0 of 6

O=C(O)C1CCCCC1C(=O)Nc1cccc(C(F)(F)F)c1 (stereo not drawn)
survivor count [4]: 5 of 6 | survivor count [5]: 3 of 6 | survivor count [6]: 4 of 6

CCCCC(CCCC)NC(C)CO (stereo not drawn)
survivor count [7]: 1 of 6 | survivor count [8]: 0 of 6

CC1CC(C)(C)NCCNC(C)CC(C)(C)NCCN1 (stereo not drawn)
survivor count (dose: 100.0 mg/kg/injection, schedule: Q04DX002 (ip), vehicle: Klucel (hydroxypropylcellulose) (HPC)): 0 of 3 | survivor count (dose: 200.0 mg/kg/injection, schedule: Q04DX002 (ip), vehicle: Klucel (hydroxypropylcellulose) (HPC)): 0 of 3 | survivor count (dose: 400.0 mg/kg/injection, schedule: Q04DX002 (ip), vehicle: Klucel (hydroxypropylcellulose) (HPC)): 0 of 3

O=C(Nc1ccc(C2=NCCN2)cc1)c1cccc(NC(=S)Nc2ccc(C3=NCCN3)cc2)c1
T/C (dose: 10.0 mg/kg/injection, schedule: Q01DX Z (ip), vehicle: saline): 130 and 131 % of control | survivor count (dose: 40.0 mg/kg/injection, schedule: Q01DX Z (ip), vehicle: saline): 1 of 6 and 2 of 6

O=C(NCCc1ccc(S(=O)(=O)Nc2ccc(N=Nc3ccc(N=Nc4ccccc4)cc3)cc2)cc1)C(N1CC1)(N1CC1)N1CC1
survivor count (dose: 60.0 mg/kg/injection, schedule: Q01DX001 (ip), vehicle: saline): 0 of 6 | survivor count (dose: 75.0 mg/kg/injection, schedule: Q01DX001 (ip), vehicle: saline): 2 of 6 | survivor count [7]: 0 of 6 | survivor count [8]: 0 of 6

CSc1cnnc2ccccc12
survivor count (dose: 100.0 mg/kg/injection, schedule: Q01DX009 (ip), vehicle: Klucel (hydroxypropylcellulose) (HPC)): 3 of 6

C=CCOCC(O)CN(CCCC)CCCC (stereo not drawn)
survivor count [4]: 0 of 6

C[Si](C)(O[Si](C)(C)c1ccccc1)c1ccccc1
survivor count [2]: 3 of 6

Cc1noc2c1CCCC2
survivor count (dose: 400.0 mg/kg/injection, schedule: Q04DX003 (ip), vehicle: carboxymethylcellulose (CMC)): 1 of 6

N#CC1(C#N)C2C=CC(C3CC=CC32)C1(C#N)C#N (stereo not drawn)
survivor count (dose: 50.0 mg/kg/injection, schedule: Q01DX009 (ip), vehicle: saline with Tween-80): 2 of 6 | survivor count (dose: 100.0 mg/kg/injection, schedule: Q04DX003 (ip), vehicle: saline with Tween-80): 4 of 6 | survivor count (dose: 200.0 mg/kg/injection, schedule: Q04DX003 (ip), vehicle: saline with Tween-80): 5 of 6 | survivor count [6]: 0 of 6

Cc1cc(N(CCCl)CCCl)ccc1N=Nc1ccccc1C(=O)[O-].Cc1cc(N(CCCl)CCCl)ccc1N=Nc1ccccc1C(=O)[O-].[Cu+2]
survivor count (dose: 7.5 mg/kg/injection, schedule: Q01DX015 (ip), vehicle: carboxymethylcellulose (CMC)): 4 of 6 | survivor count (dose: 15.0 mg/kg/injection, schedule: Q01DX015 (ip), vehicle: carboxymethylcellulose (CMC)): 6 of 6 | survivor count (dose: 30.0 mg/kg/injection, schedule: Q01DX015 (ip), vehicle: carboxymethylcellulose (CMC)): 0 of 6 | survivor count (dose: 60.0 mg/kg/injection, schedule: Q01DX015 (ip), vehicle: carboxymethylcellulose (CMC)): 0 of 6

O=C(O)COc1ccccc1C(=O)O
survivor count [9]: 0 of 4 | survivor count [10]: 1 of 4 | survivor count [11]: 0 of 4 | survivor count [3]: 0 of 4

Clc1nc(Cl)c(Cl)c(C(Cl)(Cl)Cl)n1
survivor count [4]: 5 of 6 | survivor count (dose: 400.0 mg/kg/injection, schedule: Q01DX009 (ip), vehicle: saline with Tween-80): 5 of 6

O=C(COc1ccc(Cl)c(Cl)c1)NCCc1cc[n+](Cc2ccc(S(=O)(=O)F)cc2)cc1
survivor count [6]: 0 of 6

Cc1ccc(Cl)c(C(=O)C(Br)C(Br)c2ccccc2)c1 (stereo not drawn)
survivor count [4]: 3 of 3 | survivor count [5]: 1 of 3

Cc1c2ccccc2c(CNCCSCCCl)c2ccc3ccccc3c12
survivor count [1]: 3 of 6 | survivor count (dose: 500.0 mg/kg/injection, schedule: Q01DX009 (ip), vehicle: saline): 2 of 6

COc1cc2c3c(c1)/C(=N\Nc1ccccc1)CCN3CCC2
survivor count (dose: 50.0 mg/kg/injection, schedule: Q01DX009 (ip), vehicle: DMSO): 6 of 6 | survivor count (dose: 100.0 mg/kg/injection, schedule: Q01DX009 (ip), vehicle: DMSO): 4 of 6 | survivor count (dose: 100.0 mg/kg/injection, schedule: Q04DX003 (ip), vehicle: gum acacia): 6 of 6 | survivor count (dose: 400.0 mg/kg/injection, schedule: Q04DX003 (ip), vehicle: gum acacia): 1 of 6

CC1(C)N=C(N)N=C(N)N1c1cccc(CCCCc2cccc(NC(=O)CBr)c2)c1
survivor count [9]: 1 of 4 | survivor count [10]: 2 of 4 | survivor count [11]: 0 of 4 | survivor count [3]: 0 of 4
